Experimental data taken from patent US12622910B2, “Inhibitors of Bruton's tyrosine kinase and methods of their use” (Janssen Pharmaceutica NV, priority 2021, dated 2026).

Assay: Caco-2 permeability
Assay type: in vitro ADME
Details: human

efflux ratio at 5 μM (Caco-2, read-out: Efflux Ratio (BA/AB)): 1.5 | Papp A→B at 5 μM (Caco-2, 5 μM): 0.317 ×10⁻⁶ cm/s | Papp B→A at 5 μM (Caco-2, 5 μM): 0.477 ×10⁻⁶ cm/s
SMILES: CC(C)NCC(O)COc1ccc(CC(N)=O)cc1 (stereo not drawn) [Atenolol]
